In PMC10665427:
Results are given in words; binding and its absence hold for the method and conditions named. In cells and extracts the contact can be indirect. Binding can be weak; no strength is given.

Tests used:
[1] = target: 3xFLAG-LarA-V86A-V88A (C. crescentus); assay: co-IP; α-FLAG M2 antibody on Dynabeads Protein G; cleared BugBuster lysates of WT C. crescentus overexpressing F-LarA variants (xylose 1 h); 2.5 h at 4 °C; immunoblot for Lon; empty vector as control
[2] = target: N-terminally 3xFLAG-tagged LarA (C. crescentus); assay: as above

- binding [1]: binds
- binding [2]: binds
B1: Lon, endogenous (enzyme, UniProt B8GX12 1-799)
chain: MSELRTLPVLPLRDIVVFPHMVVPLFVGRDKSVRALEEVMRGDKQILLVTQKNSADDDPAPGDIFEVGVLATVLQLLKLPDGTVKVLVEGKARAAVVSFTDQESYYEAQIGEVSEDDGAGPEAEALSRAVVEQFENYVKLNKKVPPEALASIPQIAEPGKLADSIAAHLSVKIGDKQNLLEIFDVVKRLEKVFALMEGEISVLQVEKKIRSRVKRQMEKTQREYYLNEQMKAIQRELGDPDDARDELIDLEKRIKKTKLSKEARTKAESELKKLRNMSPMSAESTVVRNYLDWLLSIPWGKAKTKKIDLVESEGILDADHYGLEKVKERILEYLAVQARTNSLKGPILCLVGPPGVGKTSLGKSIAKATGREFVRMSLGGVRDEAEIRGHRRTYIGSMPGKVVQSMKKAKTTNAFVLLDEIDKMGSDYRGDPASALLEVLDPSQNSTFGDHYLEVDYDLSQVMFVTTANSLNMPQPLLDRMEIIRIPGYTEDEKLEIAKRHILPKLAKDHGLKPAEFIVPDKAIRDLIRYYTREAGVRSLERELGALARKTVRDLAREKVASITIDDERLAKYAGVKKYRYGETDEVDQVGIVTGLAWTEFGGDILTIEAVKMPGKGRMQITGNLKDVMKESIAAANSYVRSRALQFGIKPPVFEKTDVHIHVPDGATPKDGPSAGIAMALAMVSVLTGIPIRKDIAMTGEITLRGRVTAIGGLKEKLLAALRSGVKTVLIPQENEKDLADVPQTVKDGLEIIPVSTVDEVLKHALTGPLTPVEWNEAEEPITTSAKKDDGDSDAMLTH
